From PubChem BioAssay (EPA / NIEHS)
The inconclusive results got no clear call from the source; some entries with a clear call stand among them for comparison. For some of these results: Potencies beside an inconclusive call are fits to weak or partial responses and may not hold up. Active and inactive are the calls of the source. Rule for the calls: active = hit-call score of the fitted dose curve at least 0.9, where 1 is the maximum; inconclusive = response in the unintended direction; inactive = score below 0.9.

The chains behind the UniProt entries cited, without tags or fusion partners. Where a name states a change or a piece, a line headed by the entry shows the natural chain unless it says otherwise.
UniProt P18090, whole entry, looked up: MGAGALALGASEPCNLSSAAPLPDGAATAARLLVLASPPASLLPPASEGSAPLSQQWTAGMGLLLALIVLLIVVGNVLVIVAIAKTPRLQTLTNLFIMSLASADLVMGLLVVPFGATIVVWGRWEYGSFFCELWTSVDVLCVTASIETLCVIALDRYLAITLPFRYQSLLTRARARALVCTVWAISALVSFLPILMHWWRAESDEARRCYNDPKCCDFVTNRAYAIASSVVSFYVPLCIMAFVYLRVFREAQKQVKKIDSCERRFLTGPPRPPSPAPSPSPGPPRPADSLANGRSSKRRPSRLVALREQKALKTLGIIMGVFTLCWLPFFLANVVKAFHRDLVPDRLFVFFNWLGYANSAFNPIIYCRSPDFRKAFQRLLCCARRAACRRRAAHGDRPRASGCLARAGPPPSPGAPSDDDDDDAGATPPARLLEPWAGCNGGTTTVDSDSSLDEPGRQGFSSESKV
UniProt P22909, whole entry, looked up: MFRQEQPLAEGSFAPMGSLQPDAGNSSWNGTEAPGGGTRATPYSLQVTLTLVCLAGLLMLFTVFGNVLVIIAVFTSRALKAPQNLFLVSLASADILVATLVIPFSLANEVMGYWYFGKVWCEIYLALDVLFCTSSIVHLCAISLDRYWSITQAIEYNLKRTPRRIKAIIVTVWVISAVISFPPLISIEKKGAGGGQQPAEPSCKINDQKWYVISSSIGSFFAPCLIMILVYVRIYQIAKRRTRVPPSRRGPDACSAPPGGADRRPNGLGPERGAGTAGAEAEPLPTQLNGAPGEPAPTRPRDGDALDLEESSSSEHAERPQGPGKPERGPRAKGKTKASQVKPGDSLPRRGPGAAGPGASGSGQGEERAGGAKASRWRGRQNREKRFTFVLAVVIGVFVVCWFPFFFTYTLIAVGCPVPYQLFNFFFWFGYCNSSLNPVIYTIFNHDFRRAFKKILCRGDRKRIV
UniProt Q99808: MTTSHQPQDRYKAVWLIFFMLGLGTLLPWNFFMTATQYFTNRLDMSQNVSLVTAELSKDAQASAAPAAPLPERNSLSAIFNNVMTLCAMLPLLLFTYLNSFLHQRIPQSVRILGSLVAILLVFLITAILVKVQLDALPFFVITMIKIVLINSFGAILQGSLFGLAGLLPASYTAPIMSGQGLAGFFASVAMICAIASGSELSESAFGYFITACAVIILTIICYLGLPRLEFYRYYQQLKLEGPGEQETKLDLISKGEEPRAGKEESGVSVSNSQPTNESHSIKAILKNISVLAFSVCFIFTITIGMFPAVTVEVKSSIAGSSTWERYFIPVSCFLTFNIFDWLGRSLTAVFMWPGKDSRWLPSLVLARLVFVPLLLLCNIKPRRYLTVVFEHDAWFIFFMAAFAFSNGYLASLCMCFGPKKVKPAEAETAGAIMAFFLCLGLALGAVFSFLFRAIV
UniProt P29074: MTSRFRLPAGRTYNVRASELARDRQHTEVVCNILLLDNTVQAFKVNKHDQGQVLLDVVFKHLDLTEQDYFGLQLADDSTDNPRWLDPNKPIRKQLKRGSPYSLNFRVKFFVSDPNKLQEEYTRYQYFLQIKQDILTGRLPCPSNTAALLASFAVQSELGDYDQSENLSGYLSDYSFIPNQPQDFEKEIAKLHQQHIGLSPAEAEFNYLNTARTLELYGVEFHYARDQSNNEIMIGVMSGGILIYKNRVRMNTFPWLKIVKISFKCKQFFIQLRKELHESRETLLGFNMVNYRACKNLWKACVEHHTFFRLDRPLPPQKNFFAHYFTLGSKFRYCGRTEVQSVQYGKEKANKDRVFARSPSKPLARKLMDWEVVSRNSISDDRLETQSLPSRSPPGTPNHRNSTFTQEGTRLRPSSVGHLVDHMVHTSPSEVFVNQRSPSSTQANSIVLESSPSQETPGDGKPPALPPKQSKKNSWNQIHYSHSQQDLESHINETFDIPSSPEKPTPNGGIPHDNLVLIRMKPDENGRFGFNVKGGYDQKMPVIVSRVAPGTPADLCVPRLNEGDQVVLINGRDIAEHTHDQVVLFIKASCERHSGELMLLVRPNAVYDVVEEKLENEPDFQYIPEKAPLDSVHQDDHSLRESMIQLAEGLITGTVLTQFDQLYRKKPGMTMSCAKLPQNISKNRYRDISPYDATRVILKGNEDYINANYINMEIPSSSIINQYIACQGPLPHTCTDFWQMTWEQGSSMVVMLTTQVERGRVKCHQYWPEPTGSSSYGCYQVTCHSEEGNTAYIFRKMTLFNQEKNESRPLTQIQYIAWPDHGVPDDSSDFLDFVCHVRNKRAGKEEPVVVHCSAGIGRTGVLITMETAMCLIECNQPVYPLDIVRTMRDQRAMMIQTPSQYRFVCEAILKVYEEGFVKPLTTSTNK
UniProt Q2NNR5: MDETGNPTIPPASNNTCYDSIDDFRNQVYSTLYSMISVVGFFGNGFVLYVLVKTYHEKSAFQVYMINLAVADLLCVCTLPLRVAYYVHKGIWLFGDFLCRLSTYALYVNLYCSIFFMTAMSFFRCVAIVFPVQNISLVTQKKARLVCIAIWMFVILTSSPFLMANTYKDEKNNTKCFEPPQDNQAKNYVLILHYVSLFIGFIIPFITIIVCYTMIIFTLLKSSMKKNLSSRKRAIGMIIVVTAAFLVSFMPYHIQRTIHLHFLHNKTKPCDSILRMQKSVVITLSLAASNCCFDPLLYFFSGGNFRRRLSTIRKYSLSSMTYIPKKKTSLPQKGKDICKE
UniProt P14600, whole entry, looked up: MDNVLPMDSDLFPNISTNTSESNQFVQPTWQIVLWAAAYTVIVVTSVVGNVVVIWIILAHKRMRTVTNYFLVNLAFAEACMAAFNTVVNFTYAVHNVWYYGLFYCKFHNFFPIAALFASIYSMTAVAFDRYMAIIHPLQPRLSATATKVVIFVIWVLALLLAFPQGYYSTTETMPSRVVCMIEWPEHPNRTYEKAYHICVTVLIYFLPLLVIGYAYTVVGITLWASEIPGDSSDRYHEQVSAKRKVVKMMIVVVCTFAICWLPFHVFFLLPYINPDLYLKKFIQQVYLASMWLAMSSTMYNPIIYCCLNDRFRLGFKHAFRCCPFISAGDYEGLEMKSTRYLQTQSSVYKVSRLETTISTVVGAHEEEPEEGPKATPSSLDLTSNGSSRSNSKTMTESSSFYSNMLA
UniProt Q05209: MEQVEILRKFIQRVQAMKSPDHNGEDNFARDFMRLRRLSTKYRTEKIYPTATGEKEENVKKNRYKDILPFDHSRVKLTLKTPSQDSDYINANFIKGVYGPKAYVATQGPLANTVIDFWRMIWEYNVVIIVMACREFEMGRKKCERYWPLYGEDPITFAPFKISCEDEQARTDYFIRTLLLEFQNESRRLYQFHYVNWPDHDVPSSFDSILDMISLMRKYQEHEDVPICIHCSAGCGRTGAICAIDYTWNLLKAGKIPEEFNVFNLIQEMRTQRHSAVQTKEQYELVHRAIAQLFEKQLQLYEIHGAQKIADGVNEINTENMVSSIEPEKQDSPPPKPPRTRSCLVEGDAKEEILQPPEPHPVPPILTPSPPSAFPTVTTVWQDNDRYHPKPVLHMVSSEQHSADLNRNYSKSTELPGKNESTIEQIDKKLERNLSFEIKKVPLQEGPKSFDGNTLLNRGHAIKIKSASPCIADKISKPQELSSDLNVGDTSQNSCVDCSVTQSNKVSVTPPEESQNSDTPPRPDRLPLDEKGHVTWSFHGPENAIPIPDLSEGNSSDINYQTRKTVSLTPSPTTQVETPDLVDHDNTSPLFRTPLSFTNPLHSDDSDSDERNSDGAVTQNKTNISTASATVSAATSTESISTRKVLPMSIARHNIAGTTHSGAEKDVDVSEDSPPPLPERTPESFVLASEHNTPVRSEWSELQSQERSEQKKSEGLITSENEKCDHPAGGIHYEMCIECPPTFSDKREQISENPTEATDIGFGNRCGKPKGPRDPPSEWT
UniProt P41146: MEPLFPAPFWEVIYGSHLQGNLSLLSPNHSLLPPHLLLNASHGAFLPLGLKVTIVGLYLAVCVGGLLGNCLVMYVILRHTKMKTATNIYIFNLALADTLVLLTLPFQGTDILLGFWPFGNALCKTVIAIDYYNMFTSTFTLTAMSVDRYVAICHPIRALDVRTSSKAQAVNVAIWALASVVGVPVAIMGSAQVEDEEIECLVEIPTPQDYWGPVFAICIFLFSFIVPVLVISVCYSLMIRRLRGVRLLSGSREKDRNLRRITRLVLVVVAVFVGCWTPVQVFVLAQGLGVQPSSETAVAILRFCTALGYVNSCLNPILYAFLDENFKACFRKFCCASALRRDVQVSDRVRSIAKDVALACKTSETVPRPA
UniProt Q96RI1: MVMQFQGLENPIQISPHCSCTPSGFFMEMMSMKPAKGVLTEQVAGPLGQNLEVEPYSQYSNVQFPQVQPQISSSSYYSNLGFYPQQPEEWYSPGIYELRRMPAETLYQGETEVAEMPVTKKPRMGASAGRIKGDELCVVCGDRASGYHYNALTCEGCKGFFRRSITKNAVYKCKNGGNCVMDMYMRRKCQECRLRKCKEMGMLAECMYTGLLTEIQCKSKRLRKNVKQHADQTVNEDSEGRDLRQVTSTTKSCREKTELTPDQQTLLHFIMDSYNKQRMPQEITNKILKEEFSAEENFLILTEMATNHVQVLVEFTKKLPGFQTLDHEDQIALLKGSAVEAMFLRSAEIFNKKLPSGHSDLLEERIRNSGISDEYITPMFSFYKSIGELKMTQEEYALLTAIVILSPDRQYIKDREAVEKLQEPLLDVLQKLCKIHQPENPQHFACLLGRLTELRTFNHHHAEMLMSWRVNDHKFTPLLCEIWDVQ
UniProt P08684, whole entry, looked up: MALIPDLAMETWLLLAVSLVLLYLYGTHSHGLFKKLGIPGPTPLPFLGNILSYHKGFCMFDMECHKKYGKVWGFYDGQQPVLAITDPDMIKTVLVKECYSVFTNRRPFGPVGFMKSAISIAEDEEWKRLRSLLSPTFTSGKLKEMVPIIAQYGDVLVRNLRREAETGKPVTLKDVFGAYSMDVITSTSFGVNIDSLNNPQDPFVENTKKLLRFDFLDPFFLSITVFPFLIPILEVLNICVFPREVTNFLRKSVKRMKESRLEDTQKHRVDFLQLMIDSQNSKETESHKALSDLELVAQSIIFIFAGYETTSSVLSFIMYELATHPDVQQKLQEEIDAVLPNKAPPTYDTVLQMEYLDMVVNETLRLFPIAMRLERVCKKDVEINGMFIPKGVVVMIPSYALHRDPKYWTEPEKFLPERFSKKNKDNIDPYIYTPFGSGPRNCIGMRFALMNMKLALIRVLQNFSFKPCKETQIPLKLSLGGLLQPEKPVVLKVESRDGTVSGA
UniProt Q9UNQ0: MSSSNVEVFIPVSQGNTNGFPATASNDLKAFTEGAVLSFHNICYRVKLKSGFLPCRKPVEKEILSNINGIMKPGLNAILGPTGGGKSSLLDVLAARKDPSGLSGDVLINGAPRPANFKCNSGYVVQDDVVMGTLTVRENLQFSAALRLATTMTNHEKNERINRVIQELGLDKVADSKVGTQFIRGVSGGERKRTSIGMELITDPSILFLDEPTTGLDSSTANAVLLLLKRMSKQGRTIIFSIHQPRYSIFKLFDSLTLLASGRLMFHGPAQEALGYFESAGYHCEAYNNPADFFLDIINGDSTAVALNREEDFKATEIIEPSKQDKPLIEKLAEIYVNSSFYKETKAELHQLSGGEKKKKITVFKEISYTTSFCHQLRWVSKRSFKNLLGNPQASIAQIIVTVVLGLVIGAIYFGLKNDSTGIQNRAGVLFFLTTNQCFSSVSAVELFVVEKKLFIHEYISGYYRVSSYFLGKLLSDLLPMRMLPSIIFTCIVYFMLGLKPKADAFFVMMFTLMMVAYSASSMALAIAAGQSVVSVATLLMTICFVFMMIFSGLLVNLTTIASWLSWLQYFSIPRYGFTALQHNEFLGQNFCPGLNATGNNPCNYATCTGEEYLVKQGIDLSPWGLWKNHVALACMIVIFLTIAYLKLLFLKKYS
UniProt P33261, whole entry, looked up: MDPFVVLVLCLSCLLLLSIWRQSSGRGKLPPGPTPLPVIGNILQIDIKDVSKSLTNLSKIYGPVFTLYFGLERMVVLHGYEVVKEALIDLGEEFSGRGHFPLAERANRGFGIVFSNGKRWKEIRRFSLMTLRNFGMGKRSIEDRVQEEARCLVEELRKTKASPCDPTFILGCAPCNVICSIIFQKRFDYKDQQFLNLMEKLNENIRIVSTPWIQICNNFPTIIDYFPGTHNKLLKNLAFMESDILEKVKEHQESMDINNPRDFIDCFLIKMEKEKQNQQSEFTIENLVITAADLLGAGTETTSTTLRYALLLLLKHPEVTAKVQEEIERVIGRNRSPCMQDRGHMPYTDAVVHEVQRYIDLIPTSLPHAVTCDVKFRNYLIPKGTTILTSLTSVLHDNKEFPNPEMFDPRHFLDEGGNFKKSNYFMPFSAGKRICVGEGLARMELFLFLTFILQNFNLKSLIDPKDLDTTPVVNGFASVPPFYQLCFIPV

Key:
[1] = tested on: rat Adrenergic, Alpha 1B Receptor (Adra1B), gene 24173; assay: NVS_GPCR_rAdra1B: NovaScreen (NVS) G Protein-Coupled Receptor Assay for rat Adrenergic, Alpha 1B Receptor (Adra1B) (AID 2283297)
How it was run: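 Filter-binding radioligand competition on membranes from rat liver, read after 1 h by scintillation counting. Single-concentration duplicate screen at 25 uM, followed by concentration-response on actives, normalised to DMSO.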

[2] = target: rat Adrenergic Receptor, Beta (Adrb), Non-selective Binding, Adrb1 (gene 24925) (UniProt P18090); assay: NVS_GPCR_rAdrb_NonSelective: NovaScreen (NVS) G Protein-Coupled Receptor Assay for rat Adrenergic Receptor, Beta (Adrb), Non-selective Binding (AID 2283298)
How it was run: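 Rat cortical membranes incubated 1 h with beta-adrenergic radioligand and test chemical; bound ligand measured by filtration and scintillation counting. Screen at 25 uM duplicate, then concentration series with 50 uM maximum; loss of signal versus DMSO.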

[3] = target: rat Adrenergic Receptor, Alpha 2 (Adra2), Non-selective Binding, Adra2a (gene 25083) (UniProt P22909); assay: NVS_GPCR_rAdra2_NonSelective: NovaScreen (NVS) G Protein-Coupled Receptor Assay for rat Adrenergic Receptor, Alpha 2 (Adra2), Non-selective Binding (AID 2283299)
How it was run: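 Filter-based scintillation counting of radioligand binding to rat cortical membrane receptors, measured 1.25 hours post-dosing; loss of signal versus DMSO indicates displacement. Initial single-concentration duplicate at 25 uM, then concentration series.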

[4] = tested on: guinea pig Histamine Receptor (H2), gene 100729734; assay: NVS_GPCR_gH2: NovaScreen (NVS) G Protein-Coupled Receptor Assay for guinea pig Histamine Receptor (H2) (AID 2283342)
How it was run: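 Guinea pig striatal membrane preparation with specific radioligand; bound counts measured by filtration and scintillation 1 h post-dosing, DMSO as baseline. Chemicals passing a 25 uM duplicate screen were titrated to a 50 uM maximum.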

[5] = target: human Adenosine Transporter (Adot), SLC29A1 (gene 2030) (UniProt Q99808); assay: NVS_TR_hAdoT: NovaScreen (NVS) Transporter Assay for human Adenosine Transporter (Adot) (AID 2283368)
How it was run: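 Binding displacement on U937 extracted protein, read 1 h post-dose by filtration and scintillation counting. Primary duplicate test at 25 uM, then singleton concentration series with 50 uM top; DMSO baseline.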

[6] = target: human Protein Tyrosine Phosphatase Non-receptor Type 4 (PTPN4), PTPN4 (gene 5775) (UniProt P29074); assay: NVS_ENZ_hPTPN4: NovaScreen (NVS) Enzymatic Assay for human Protein Tyrosine Phosphatase Non-receptor Type 4 (PTPN4) (AID 2283208)
How it was run: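 Screened in duplicate at 25 uM, with hits then titrated to a top concentration of 50 uM. Recombinant Sf9-derived PTPN4 turnover was read by fluorescence with electrophoretic separation, 1.33 h after compound addition. DMSO served as baseline.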

[7] = target: guinea pig Leukotriene D4 Receptor (LTD4), CYSLTR1 (gene 100135514) (UniProt Q2NNR5); assay: NVS_GPCR_gLTD4: NovaScreen (NVS) G Protein-Coupled Receptor Assay for guinea pig Leukotriene D4 Receptor (LTD4) (AID 2283248)
How it was run: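 Guinea pig lung membrane preparation; bound radioligand measured by filter scintillation after 1 h, loss of signal versus DMSO marking displacement. Compounds tested at 25 uM in duplicate, hits retested to max 50 uM.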

[8] = target: rat Neurokinin-1 Receptor (NK1), Tacr1 (gene 24807) (UniProt P14600); assay: NVS_GPCR_rNK1: NovaScreen (NVS) G Protein-Coupled Receptor Assay for rat Neurokinin-1 Receptor (NK1) (AID 2283309)
How it was run: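 Competitive radioligand binding to NK1 in rat submaxillary membranes, 1 h incubation, filtration and scintillation read-out. Compounds first screened at 25 uM in duplicate, then concentration-response for actives; signal loss relative to DMSO.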

[9] = target: Tyrosine-protein phosphatase non-receptor type 12 (Homo sapiens) (UniProt Q05209); assay: NVS_ENZ_hPTPN12: NovaScreen (NVS) Enzymatic Assay for human Protein Tyrosine Phosphatase Non-receptor Type 12 (PTPN12) (AID 2283204)
How it was run: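 Single-concentration duplicates (25 uM) preceded singleton concentration-response up to 50 uM for chemicals passing threshold. Cell-free recombinant PTPN12 activity was read 1.33 h after dosing via fluorescence after mobility-shift separation; loss of signal versus DMSO.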

[10] = target: human Orphanin, Opioid Related Nociceptin Receptor 1 (ORL1), OPRL1 (gene 4987) (UniProt P41146); assay: NVS_GPCR_hORL1: NovaScreen (NVS) G Protein-Coupled Receptor Assay for human Orphanin, Opioid Related Nociceptin Receptor 1 (ORL1) (AID 2283283)
How it was run: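 Cell-free binding using HEK293-derived receptor protein: radioligand displacement measured by filter scintillation 1 hour after dosing. Primary testing at 25 uM in duplicate, followed by singleton concentration series up to 50 uM; DMSO served as negative control.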

[11] = target: Bile acid receptor (Homo sapiens) (UniProt Q96RI1); assay: NVS_NR_hFXR_Agonist: NovaScreen (NVS) Nuclear Receptor Binding Assay for human Farnesoid X Receptor Agonism (FXR) (AID 2283347)
How it was run: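 Agonist-mode FXR assay read by time-resolved FRET 1 h after compound addition, using isolated human receptor protein without cells. Duplicate 25 uM single-point primary screen, concentration series for confirmed actives; DMSO as baseline.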

[12] = read-out: xenobiotic metabolism (CYP2C9), CYP2C9 (gene 1559); assay: CLD_CYP2C9_6hr: CellzDirect (CLD) Gene Expression Assay for xenobiotic metabolism (CYP2C9) at 6 hours (AID 2283664)
How it was run: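 Readout is qNPA chemiluminescence of CYP2C9 mRNA, taken 6 h after dosing of cultured human liver primary cells at several concentrations. Activity is the increase over 0.2% DMSO baseline. Morphology-based cytotoxicity flagged yes/no.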

[13] = read-out: alkyl and aryl transferase (GSTA2), GSTA2 (gene 2939); assay: CLD_GSTA2_6hr: CellzDirect (CLD) Gene Expression Assay for alkyl and aryl transferase (GSTA2) at 6 hours (AID 2283666)
How it was run: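 GSTA2 transcript induction at 6 h, quantified by nuclease protection (qNPA) with chemiluminescent detection, in human liver primary hepatocytes exposed to several compound concentrations with 0.2% DMSO as baseline; phase-contrast morphology annotated apparent cytotoxicity.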

[14] = CLD_ACTIN_24hr: CellzDirect (CLD) Gene Expression Assay for Baseline Control (Actin) at 24 hours (AID 2283670)
How it was run: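 This 24 h qNPA (S1 nuclease protection, chemiluminescence) actin transcript readout in cultured human liver primary cells serves as baseline control. Signal is fitted upward relative to 0.2% DMSO; chemicals tested at multiple concentrations across two donor preparations.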

[15] = CLD_ACTIN_6hr: CellzDirect (CLD) Gene Expression Assay for Baseline Control (Actin) at 6 hours (AID 2283676);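 for outcome: active means increased actin mRNA relative to DMSO vehicle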
How it was run: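 Baseline actin transcript level measured by qNPA (S1 nuclease protection, chemiluminescence) in human hepatocyte cultures 6 h after chemical exposure; 0.2% DMSO vehicle as reference, cytotoxicity noted from morphology.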

[16] = read-out: Cytochrome P450 3A4 (Homo sapiens) (UniProt P08684); assay: CLD_CYP3A4_6hr: CellzDirect (CLD) Gene Expression Assay for xenobiotic metabolism (CYP3A4) at 6 hours (AID 2283680)
How it was run: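 CYP3A4 mRNA induction, 6 h after dosing of cultured primary human hepatocytes from two donors, read by quantitative nuclease protection (qNPA, chemiluminescence). Vehicle 0.2% DMSO as baseline; morphology-based cytotoxicity annotated yes/no.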

[17] = read-out: Broad substrate specificity ATP-binding cassette transporter ABCG2 (Homo sapiens) (UniProt Q9UNQ0); assay: CLD_ABCG2_24hr: CellzDirect (CLD) Gene Expression Assay for ABC Transporter (ABCG2) at 24 hours (AID 2283685);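 for AC50: AC50 is for induction meaning signal gain over DMSO vehicle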
How it was run: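 ABCG2 mRNA induction, read as gain of chemiluminescent signal over 0.2% DMSO, was measured by quantitative nuclease protection at 24 h. Cultured human liver hepatocytes were given fresh dosing solutions of test chemicals at several concentrations each day.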

[18] = read-out: Cytochrome P450 2C19 (Homo sapiens) (UniProt P33261); assay: CLD_CYP2C19_24hr: CellzDirect (CLD) Gene Expression Assay for xenobiotic metabolism (CYP2C19) at 24 hours (AID 2283687)
How it was run: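 CYP2C19 mRNA was quantified by qNPA chemiluminescence after 24 h of daily dosing of cultured human primary hepatocytes from two donors; vehicle was 0.2% DMSO, and increases over DMSO baseline were fitted.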

[19] = read-out: organic anion transporter (SLCO1B1), SLCO1B1 (gene 10599); assay: CLD_SLCO1B1_24hr: CellzDirect (CLD) Gene Expression Assay for organic anion transporter (SLCO1B1) at 24 hours (AID 2283690)
How it was run: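 SLCO1B1 mRNA induction read at 24 h by quantitative nuclease protection assay (chemiluminescence), analyzed against DMSO baseline. Human hepatocyte cultures from separate donors received fresh dosing solutions daily; vehicle 0.2% DMSO; cytotoxicity flagged by phase-contrast morphology.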

[20] = read-out: alkyl and aryl transferase (GSTA2), GSTA2 (gene 2939); assay: CLD_GSTA2_24hr: CellzDirect (CLD) Gene Expression Assay for alkyl and aryl transferase (GSTA2) at 24 hours (AID 2283693)
How it was run: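 GSTA2 transcript levels were quantified by quantitative nuclease protection assay in primary human hepatocytes 24 h after daily dosing with fresh solutions at multiple concentrations; 0.2% DMSO vehicle as baseline, cytotoxicity flagged morphologically.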

Cc1cc(SC2=C(O)C[C@@](CCc3ccc(N)cc3)(C(C)C)OC2=O)c(C(C)(C)C)cc1CO
AC50 [1]: inconclusive: 0.223 µM | AC50 [2]: inconclusive: 39.4 µM | AC50 [3]: inconclusive: 44.7 µM | AC50 [4]: inconclusive: 19.1 µM | AC50 [5]: inconclusive: 25 µM

CCCCCCCCCC(=O)O
AC50 [6]: inconclusive: 0.143 µM | AC50 [7]: inconclusive: 26.1 µM | AC50 [8]: inconclusive: 26.1 µM

OCCOCCOCCO
outcome [9]: inactive | outcome [10]: inactive | AC50 [8]: inconclusive: 25 µM

CCOC(=O)[C@H](C)Oc1ccc(Oc2nc3ccc(Cl)cc3o2)cc1
AC50 [11]: inconclusive: 13.6 µM | AC50 [12]: inconclusive: 20 µM | AC50 [13]: inconclusive: 20 µM | AC50 [14]: inconclusive: 20 µM | outcome [15]: inactive | AC50 [16]: inconclusive: 20 µM | outcome [17]: inactive | AC50 [18]: inconclusive: 20 µM | outcome [19]: inactive | AC50 [20]: inconclusive: 20 µM

CC(=O)[C@H]1CC[C@H]2[C@@H]3CCC4=CC(=O)CC[C@]4(C)[C@H]3CC[C@]12C
AC50 [5]: active: 6.22 µM

O=C(OCCCCCOC(=O)c1ccccc1)c1ccccc1
AC50 [9]: inconclusive: 6.39 µM

Oc1ccc2c(c1)OC[C@@H](N1CCC(O)(c3ccc(F)cc3)CC1)[C@H]2O
AC50 [3]: inconclusive: 0.0478 µM | AC50 [4]: inconclusive: 12.5 µM

O=C(NO)C1(NS(=O)(=O)c2ccc(Oc3ccc(F)cc3)cc2)CCOCC1
outcome [6]: inactive

Cc1cc(S(=O)(=O)O)ccc1N=Nc1c(O)ccc2ccccc12
AC50 [11]: inconclusive: 25.3 µM

CC1=CC(=O)CC(C)(C)C1
outcome [2]: inactive

CCc1cc(SCc2sc(-c3ccc(C(F)(F)F)cc3)nc2CN2CCN(c3ccc(OC)cc3)CC2)ccc1OCC(=O)O
outcome [7]: inactive | AC50 [10]: inconclusive: 25 µM | outcome [1]: inactive

CCCCC(CC)COC(=O)c1ccccc1C(=O)O (stereo not given)
AC50 [12]: inconclusive: 20 µM | AC50 [13]: inconclusive: 20 µM | AC50 [14]: inconclusive: 20 µM | AC50 [15]: inconclusive: 20 µM | outcome [16]: inactive | AC50 [17]: inconclusive: 0.000399 µM | AC50 [18]: inconclusive: 0.000942 µM | outcome [19]: inactive | AC50 [20]: inconclusive: 20 µM
